In publication PMC7511233:
Results are given in words; binding and its absence hold for the method and conditions named. A result given as binding can be weak or reduced; the word gives no strength.

Amino acid sequences for entries named in this document (tags omitted). A change or cut given only in a name is not applied to a line headed by its entry. Residues count along the entry.
UniProt Q5KU26: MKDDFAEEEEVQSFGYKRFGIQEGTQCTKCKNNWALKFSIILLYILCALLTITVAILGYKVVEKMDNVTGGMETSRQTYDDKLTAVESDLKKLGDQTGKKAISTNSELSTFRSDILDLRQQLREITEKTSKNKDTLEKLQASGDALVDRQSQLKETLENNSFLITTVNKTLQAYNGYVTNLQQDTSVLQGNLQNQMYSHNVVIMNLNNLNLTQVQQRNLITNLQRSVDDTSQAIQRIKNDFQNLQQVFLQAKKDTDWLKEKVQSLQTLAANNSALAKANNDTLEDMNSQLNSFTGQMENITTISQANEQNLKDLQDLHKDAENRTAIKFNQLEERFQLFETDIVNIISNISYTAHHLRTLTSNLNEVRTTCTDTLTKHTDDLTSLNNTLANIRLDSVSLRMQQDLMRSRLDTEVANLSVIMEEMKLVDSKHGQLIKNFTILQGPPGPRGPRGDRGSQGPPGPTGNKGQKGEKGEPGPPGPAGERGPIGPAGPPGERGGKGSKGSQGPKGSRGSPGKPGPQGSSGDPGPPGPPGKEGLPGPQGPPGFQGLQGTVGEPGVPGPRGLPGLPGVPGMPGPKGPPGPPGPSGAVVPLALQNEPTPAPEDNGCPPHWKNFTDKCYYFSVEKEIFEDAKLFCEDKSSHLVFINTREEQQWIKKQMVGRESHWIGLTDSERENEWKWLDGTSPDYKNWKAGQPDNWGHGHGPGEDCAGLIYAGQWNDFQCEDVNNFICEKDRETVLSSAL
UniProt P27918, residues 28-469: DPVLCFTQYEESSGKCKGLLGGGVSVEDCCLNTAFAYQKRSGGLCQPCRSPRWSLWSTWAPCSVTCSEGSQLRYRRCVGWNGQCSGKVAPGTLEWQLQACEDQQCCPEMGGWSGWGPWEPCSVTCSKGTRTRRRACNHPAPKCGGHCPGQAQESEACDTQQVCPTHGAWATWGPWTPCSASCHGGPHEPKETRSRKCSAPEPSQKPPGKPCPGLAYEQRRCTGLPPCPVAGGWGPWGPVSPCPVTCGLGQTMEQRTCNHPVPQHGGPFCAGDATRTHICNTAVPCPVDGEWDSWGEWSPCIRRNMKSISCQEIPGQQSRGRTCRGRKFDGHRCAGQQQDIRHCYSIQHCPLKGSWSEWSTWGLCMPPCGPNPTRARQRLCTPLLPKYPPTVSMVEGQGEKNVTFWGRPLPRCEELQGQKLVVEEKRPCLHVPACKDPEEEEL

Key:
[1] = biological target: recombinant soluble CL-12 (UniProt Q5KU26); assay: flow cytometry on cells; A. niger conidia with sCL-12, then fP-Dpl restored with serum properdin or properdin variants (10 µg/ml; properdin tetramer 20 µg/ml in Figure 5E), as described for A. fumigatus; only the target purified
[2] = biological target: recombinant soluble CL-12 (UniProt Q5KU26); assay: flow cytometry on cells; A. fumigatus conidia pre-incubated with sCL-12 (5 µg/ml), then properdin-depleted serum (fP-Dpl, 10%) treated with Cp40 (6 µM) plus purified serum properdin (10 µg/ml) or properdin variants, EGTA-Mg2+ buffer; variants read as % properdin/CL-12-double positive events; only the target purified
[3] = biological target: recombinant soluble CL-12 (UniProt Q5KU26); assay: flow cytometry on cells; A. niger conidia with sCL-12, then C3-depleted serum (C3-Dpl), as described for A. fumigatus; only the target purified
[4] = biological target: recombinant soluble CL-12 (UniProt Q5KU26); assay: flow cytometry on cells; A. fumigatus conidia pre-incubated with sCL-12 (5 µg/ml), then NHS (20%) in TBS/EGTA-Mg2+ (10 mM Tris/150 mM NaCl/10 mM EGTA/5 mM Mg2+, pH 7.4), without Cp40; properdin detected with sheep anti-human properdin pAb; only the target purified
[5] = biological target: recombinant soluble CL-12 (UniProt Q5KU26); assay: flow cytometry on cells; A. niger conidia with sCL-12, then NHS in the presence of Cp40, as described for A. fumigatus; only the target purified
[6] = biological target: recombinant soluble CL-12 (UniProt Q5KU26); assay: flow cytometry on cells; A. fumigatus conidia pre-incubated with sCL-12 (5 µg/ml), then C3-depleted serum (C3-Dpl, 11.1 ~ 100%); % positive events with respect to C3-Dpl alone; only the target purified
[7] = biological target: recombinant soluble CL-12 (UniProt Q5KU26); assay: flow cytometry on cells; A. fumigatus conidia pre-incubated with sCL-12 (5 µg/ml), then NHS (20%) preincubated with the C3 inhibitor Cp40 (6 µM), TBS/EGTA-Mg2+; properdin detected with sheep anti-human properdin pAb; only the target purified

Substance | binding [1] | binding [2] | binding [3] | binding [4] | binding [5] | binding [6] | binding [7]
recombinant wild type properdin, tetramer fraction (from UniProt P27918 28-469) | binds | binds |  |  |  |  | 
properdin in normal human serum (from UniProt P27918 28-469) |  |  | binds | binds | binds | binds | binds
purified serum properdin (from UniProt P27918 28-469) | binds |  |  |  |  |  | 
recombinant wild type properdin, dimer and trimer fraction (from UniProt P27918 28-469) | no binding (tested: 10 µg/ml) | no binding |  |  |  |  | 
